Literature values in patent US20040073277A1, “High fluence rate activation of photosensitizers for dermatological applications” (priority 2002, published 2004).
“And” between values parts separate entries of the source, which are not always exact repeats. Equal values may be shown once. At least one structure is not confirmed: it was looked up by name or label, or the drawing left a doubt.

Details: cited from earlier work

| SMILES | Approximate wavelength of selected absorption peaks |
| --- | --- |
| CCOC(=O)C1=Cc2c3nc(cc4nc(cc5[n-]c(cc6[n-]c2c(C)c6CC)c(C)c5CC)C(C)=C4CC)[C@@H](C)[C@]13CC.[Cl-].[Cl-].[Sn] (racemic) [tin etiopurpurin] | ~660 nm |
| C=Cc1c(C)c2cc3nc(c(CC(=O)O)c4[nH]c(cc5nc(cc1[nH]2)C(C)=C5CC)c(C)c4C(=O)O)[C@@H](CCC(=O)O)[C@@H]3C [chlorin e6] | ~410 nm and ~658 nm |
| Cc1cc(O)c2c(=O)c3c(O)cc(O)c4c5c(O)cc(O)c6c(=O)c7c(O)cc(C)c8c1c2c(c34)c(c78)c65 [hypericin] | ~550 nm and ~595 nm |
| C=CC1=C(C)c2cc3[nH]c(cc4nc(cc5[nH]c(cc1n2)c(C)c5CCC(=O)O)C(CCC(=O)O)=C4C)c(C)c3C=C [protoporphyrin IX] | ~506 nm and ~546 nm and ~578 nm and ~635 nm |
| O=C([O-])c1c(Cl)c(Cl)c(Cl)c(Cl)c1-c1c2cc(I)c(=O)c(I)c-2oc2c(I)c([O-])c(I)cc12.[Na+].[Na+] [rose bengal] | ~548 nm |
